This test has as its system L1210 leukemia ip in BDF1 mice, survival T/C. In words: NCI In Vivo Anticancer Drug Screen. Data for tumor model L1210 Leukemia (intraperitoneal) in B6D2F1 (BDF1) mice. As to conditions: T/C endpoint: mean survival time, higher T/C = longer survival.
The mark [1] stands for this setting: dose: 50.0 mg/kg/injection, schedule: Q04DX003 (ip), vehicle: saline.
[2] abbreviates: dose: 200.0 mg/kg/injection, schedule: Q04DX003 (ip), vehicle: Klucel (hydroxypropylcellulose) (HPC).
Setting [3] is: dose: 200.0 mg/kg/injection, schedule: Q04DX003 (ip), vehicle: saline.
Where [4] appears, read: dose: 400.0 mg/kg/injection, schedule: Q04DX002 (ip), vehicle: saline with Tween-80.
Where [5] appears, read: dose: 200.0 mg/kg/injection, schedule: Q01DX001 (ip), vehicle: saline.
Where [6] appears, read: dose: 400.0 mg/kg/injection, schedule: Q01DX001 (ip), vehicle: saline.
Where [7] appears, read: dose: 300.0 mg/kg/injection, schedule: Q01DX001 (ip), vehicle: saline.

Among the data in PubChem BioAssay AID248 (DTP/NCI, 2004) are T/C and survivor count values, retold here.

The structures appear in SMILES notation. The list shows only some results of the screen, not a fair sample: it gathers tests that were run many times, whatever their T/C, doses with no T/C, and many T/C values between a quarter and a half above the control. Other doses and runs of a compound stand elsewhere. T/C gives the treated animals as a percentage of the vehicle group. Some doses have a count of surviving animals in place of a T/C: the source holds a T/C of zero for them, seemingly a mark for toxic or unscored doses. Some survivor counts are full or nearly so, which does not show that the dose was tolerated: survival well below the control is almost never listed, so the zero probably covers shortened survival too. Survivors were counted at the toxicity check, usually on the fifth day, unless a day is given; later deaths do not show. Schedules are NCI's codes, taken here to give the interval after Q, in days (D) or hours (H), and the number of doses after X. Some schedule codes hold Z or #, which are not explained here. For survival time, the PubChem record calls one and a half times the control and up active, and a quarter to a half above the control has no call in these data; cut-offs in other NCI protocols can differ. Some T/C values carry the count of animals alive at the toxicity check (mostly the fifth day); where none is given, no animal had died by that day. Some doses were run more than once; their values stand side by side, smallest first.

Turning to `COC1OC(CO)C(O)C(NC(=O)N(C)N=O)C1O` (stereo not given), the T/C runs as follows: (dose: 25.0 mg/kg/injection, schedule: Q01DX009 (ip), vehicle: saline) 125 % of control; (dose: 50.0 mg/kg/injection, schedule: Q01DX009 (ip), vehicle: saline, evaluated on day 30) 132 and 137 % of control; (dose: 50.0 mg/kg/injection, schedule: Q01DX009 (ip), vehicle: saline, evaluated on day 60) 140 % of control; under setting [1], 127 % of control; (dose: 65.0 mg/kg/injection, schedule: Q01DX009 (ip), vehicle: saline) 137 % of control; (dose: 66.0 mg/kg/injection, schedule: Q01DX009 (ip), vehicle: saline, evaluated on day 30) 126 % of control. Also, the T/C reads like this: (dose: 66.0 mg/kg/injection, schedule: Q01DX009 (ip), vehicle: saline, evaluated on day 60) 137 % of control; (dose: 100.0 mg/kg/injection, schedule: Q01DX009 (ip), vehicle: saline, evaluated on day 30) 131, 143, 159 % of control; (dose: 100.0 mg/kg/injection, schedule: Q01DX009 (ip), vehicle: saline, evaluated on day 60) 145 and 165 % of control; (dose: 100.0 mg/kg/injection, schedule: Q04DX003 (ip), vehicle: saline, evaluated on day 30) 130 [5 of 6 alive] and 142 % of control; (dose: 100.0 mg/kg/injection, schedule: Q04DX003 (ip), vehicle: saline, evaluated on day 60) 135 % of control; (dose: 150.0 mg/kg/injection, schedule: Q01DX009 (ip), vehicle: saline) 136 % of control. In addition, the T/C under setting [2] is 133 % of control; the T/C under setting [3] is 133 and 140 % of control. Further, the survivor count is recorded as 6 of 6 (dose: 25.0 mg/kg/injection, schedule: Q04DX003 (ip), vehicle: saline); 6 of 6 under setting [1]; 6 of 6 (dose: 100.0 mg/kg/injection, schedule: Q04DX003 (ip), vehicle: saline); 6 of 6 under setting [3].
Consider `CCCCOC(=O)c1ccc(NC(=O)Nc2cccc(F)c2)cc1`, for which the survivor count runs as follows: (dose: 200.0 mg/kg/injection, schedule: Q01DX009 (ip), vehicle: saline with Tween-80) 3 of 6; (dose: 400.0 mg/kg/injection, schedule: Q01DX009 (ip), vehicle: saline with Tween-80) 0 of 6.
For `Cc1nc2[nH]cnc(=S)c2[nH]1`, the survivor count (dose: 400.0 mg/kg/injection, schedule: Q01DX001 (ip), vehicle: other) is 0 of 6.
Regarding `CCCOc1ccc(C2=NCC(C)S2)c(C)c1` (stereo not given), the survivor count reads like this: (dose: 100.0 mg/kg/injection, schedule: Q01DX009 (ip), vehicle: Klucel (hydroxypropylcellulose) (HPC)) 3 of 3; (dose: 200.0 mg/kg/injection, schedule: Q01DX009 (ip), vehicle: Klucel (hydroxypropylcellulose) (HPC)) 3 of 3; (dose: 400.0 mg/kg/injection, schedule: Q01DX005 (ip), vehicle: Klucel (hydroxypropylcellulose) (HPC)) 2 of 3.
`COC1N(C2CC(O)C(CO)O2)C(=O)NC(=O)C1(F)Br` (stereo not given): the T/C (dose: 40.0 mg/kg/injection, schedule: Q01DX009 (ip), vehicle: saline) is 133 % of control.
As for `C1=Nc2ccccc2/C1=C/c1cccs1`, the survivor count (dose: 400.0 mg/kg/injection, schedule: Q04DX003 (ip), vehicle: carboxymethylcellulose (CMC)) was 6 of 6.
On to `C[CH2][Ge]([CH2]C)[O][Ge]([CH2]C)[CH2]C`, for which the survivor count runs as follows: (dose: 100.0 mg/kg/injection, schedule: Q04DX002 (ip), vehicle: saline with Tween-80) 0 of 3; (dose: 200.0 mg/kg/injection, schedule: Q04DX002 (ip), vehicle: saline with Tween-80) 0 of 3; under setting [4], 0 of 3.
As for `CCCC1(CN2c3ccccc3Sc3ccccc32)CCN(CC)C1` (stereo not given), the survivor count is, setting by setting: (dose: 25.0 mg/kg/injection, schedule: Q01DX001 (ip), vehicle: saline) 2 of 6; (dose: 100.0 mg/kg/injection, schedule: Q01DX001 (ip), vehicle: saline) 3 of 6; (dose: 115.0 mg/kg/injection, schedule: Q04DX003 (ip), vehicle: saline) 3 of 6; (dose: 170.0 mg/kg/injection, schedule: Q04DX003 (ip), vehicle: saline) 1 of 6; under setting [5], 0 of 6; under setting [6], 0 of 6.
As to `Cc1cc(C)c(S(=O)(=O)O)c(Cc2ccc3ccccc3c2)c1`, the survivor count is reported as 3 of 6 under setting [5] and 0 of 6 under setting [6].
Take `Cc1cccc(Cl)c1OCC(=O)Nc1ccccc1`: the survivor count under setting [4] is on record as 1 of 3.
On to `N#CC(C#N)N=Nc1ccc(S(=O)(=O)Nc2ccccn2)cc1`, for which, under setting [7], the survivor count was 1 of 6.
For the compound `Cc1ccc(N2C(=O)c3cc4ccccc4c(-c4ccccn4)c3C2=O)cc1`, the survivor count reads like this: under setting [2], 3 of 6; (dose: 400.0 mg/kg/injection, schedule: Q04DX003 (ip), vehicle: Klucel (hydroxypropylcellulose) (HPC)) 0 of 6.
`COc1ccc2c(c1)CN(C)CC2`: the survivor count runs as follows: (dose: 150.0 mg/kg/injection, schedule: Q01DX001 (ip), vehicle: other) 2 of 6; (dose: 300.0 mg/kg/injection, schedule: Q01DX001 (ip), vehicle: other) 0 of 6.
As to `O=C(Nc1ccc(NC2=NCCN2)cc1)c1cc(Cl)cc(C(=O)Nc2ccc(NC3=NCCN3)cc2)c1`, the survivor count by setting is: (dose: 60.0 mg/kg/injection, schedule: Q01DX Z (ip), vehicle: saline) 1 of 6; (dose: 120.0 mg/kg/injection, schedule: Q01DX Z (ip), vehicle: saline) 0 of 6.
Regarding `C#CCOCC(O)C[As](=O)(O)c1ccc(Cl)cc1` (stereo not given), the survivor count was 0 of 6 (dose: 25.0 mg/kg/injection, schedule: Q01DX001 (ip), vehicle: saline with Tween-80); 0 of 6 (dose: 100.0 mg/kg/injection, schedule: Q01DX001 (ip), vehicle: saline with Tween-80); 0 of 6 (dose: 200.0 mg/kg/injection, schedule: Q01DX001 (ip), vehicle: saline with Tween-80); 0 of 6 (dose: 400.0 mg/kg/injection, schedule: Q01DX001 (ip), vehicle: saline with Tween-80).
In the case of `BrP(NN=C1CCCCC1)(c1ccccc1)(c1ccccc1)c1ccccc1`, the survivor count is, setting by setting: (dose: 75.0 mg/kg/injection, schedule: Q01DX001 (ip), vehicle: saline) 0 of 6; (dose: 150.0 mg/kg/injection, schedule: Q01DX001 (ip), vehicle: saline) 0 of 6; under setting [7], 0 of 6.
On to `CCc1c(N)nc(N)nc1Cl`, for which the survivor count (dose: 50.0 mg/kg/injection, schedule: Q01DX Z (ip), vehicle: methylcellulose (MC)) is recorded as 6 of 6; the survivor count (dose: 100.0 mg/kg/injection, schedule: Q01DX Z (ip), vehicle: methylcellulose (MC)) is on record as 6 of 6; the survivor count (dose: 200.0 mg/kg/injection, schedule: Q01DX Z (ip), vehicle: methylcellulose (MC)) is recorded as 6 of 6.
